The experiment addresses NTR-1 (Rattus norvegicus, UniProt P20789). Description: Hypothermia induction in rats (rectal temperature). The experiment is classed as in vivo.

The chains behind the UniProt entries cited, without tags or fusion partners.
UniProt P20789, whole entry: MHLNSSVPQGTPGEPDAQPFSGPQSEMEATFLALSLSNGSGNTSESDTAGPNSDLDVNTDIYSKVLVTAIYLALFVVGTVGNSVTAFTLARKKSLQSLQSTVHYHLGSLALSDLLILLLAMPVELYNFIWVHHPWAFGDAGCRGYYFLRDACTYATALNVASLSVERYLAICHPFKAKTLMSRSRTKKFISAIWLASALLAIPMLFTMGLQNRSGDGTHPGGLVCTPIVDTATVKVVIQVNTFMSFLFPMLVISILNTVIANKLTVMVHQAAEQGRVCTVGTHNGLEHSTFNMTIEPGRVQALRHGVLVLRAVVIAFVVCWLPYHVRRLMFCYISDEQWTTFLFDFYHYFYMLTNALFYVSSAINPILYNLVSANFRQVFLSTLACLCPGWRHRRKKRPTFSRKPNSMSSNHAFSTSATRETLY

For `CC(C)C[C@H](NC(=O)[C@@H](NC(=O)[C@H](Cc1ccc(O)cc1)NC(=O)[C@@H]1CCCN1C(=O)[C@H](CCCNC(=N)N)NC(=O)[C@H](CCCCCN)N=[N+]=[N-])C(C)(C)C)C(=O)O` [ABS13, N3-L-homolysine-Arg-Pro-Tyr-tertLeu-Leu-COOH], the “IP Dose tmax” value (IP 5 mg/kg, Table 9) worked out at 2.5 h. The “IP Dose Δ in BT (° C.)” value (IP 5 mg/kg, at tmax, Table 9) was −4.26 °C. In addition, the “Oral Dose tmax” value (oral 20 mg/kg) turned out to be 1.5 h. The “Oral Dose Δ in BT (° C.)” value (oral 20 mg/kg, at tmax) is −1.66 °C.

(Values after US20080234202A1, “Non-natural amino acids and neurotensin analogues” (priority 2004, published 2008).)
